Experimental data taken from patent publication US9873904B2, “Detection of acid-producing bacteria” (3M INNOVATIVE PROPERTIES COMPANY, priority 2009, dated 2018).
For at least one compound, name, drawing or mass did not settle the structure.

Test system: L. mesenteroides
Assay: Colony appearance on thin film culture devices containing pH indicators (MRS/Letheen diluent)
Format: cell-based, Leuconostoc mesenteroides
Settings: 25° C.; indicator 0.5 mM
Source text: The aliquot were separately filter-sterilized.

## O=C1C(Br)=CC(=C(c2cc(Br)c(O)c(Br)c2)c2ccccc2S(=O)(=O)[O-])C=C1Br.[Na+] [Bromphenol Blue, Bromphenol Blue sodium salt]
  72-hour Results: Gas bubbles only (no colonies
